Some of the results follow.
Compound: C1=CC=C(C=C1)C2=NC(=C(N2)C3=CC=NC=C3)C4=CC(=C(C=C4)Cl)O
Test: log2 fold change, soluble protein after heating vs DMSO (PISA); higher = thermal stabilisation; K562 cells, 10 uM, 30 min; active = over 0.2 and 3.5 SD of the protein, either way, in both replicates (recomputed)
Summary of the method: (§1)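 Aliquots of K562 cells (2×10^6 cells/mL) treated with 10 μM compound for 30 min were heated for 3 min over 48°C-58°C. After pooling and extraction in PBS with 0.5% NP-40 at 4°C, soluble protein from a 21,000xg, 90 min spin was quantified by TMTpro 16plex LC-MS/MS with channel sums equalised. Thermal stability is expressed against control samples, from duplicates, as a log2 fold change.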

Amino acid sequences for entries named in this document (tags omitted). A change or cut given only in a name is not applied to a line headed by its entry.
UniProt Q9Y3R5: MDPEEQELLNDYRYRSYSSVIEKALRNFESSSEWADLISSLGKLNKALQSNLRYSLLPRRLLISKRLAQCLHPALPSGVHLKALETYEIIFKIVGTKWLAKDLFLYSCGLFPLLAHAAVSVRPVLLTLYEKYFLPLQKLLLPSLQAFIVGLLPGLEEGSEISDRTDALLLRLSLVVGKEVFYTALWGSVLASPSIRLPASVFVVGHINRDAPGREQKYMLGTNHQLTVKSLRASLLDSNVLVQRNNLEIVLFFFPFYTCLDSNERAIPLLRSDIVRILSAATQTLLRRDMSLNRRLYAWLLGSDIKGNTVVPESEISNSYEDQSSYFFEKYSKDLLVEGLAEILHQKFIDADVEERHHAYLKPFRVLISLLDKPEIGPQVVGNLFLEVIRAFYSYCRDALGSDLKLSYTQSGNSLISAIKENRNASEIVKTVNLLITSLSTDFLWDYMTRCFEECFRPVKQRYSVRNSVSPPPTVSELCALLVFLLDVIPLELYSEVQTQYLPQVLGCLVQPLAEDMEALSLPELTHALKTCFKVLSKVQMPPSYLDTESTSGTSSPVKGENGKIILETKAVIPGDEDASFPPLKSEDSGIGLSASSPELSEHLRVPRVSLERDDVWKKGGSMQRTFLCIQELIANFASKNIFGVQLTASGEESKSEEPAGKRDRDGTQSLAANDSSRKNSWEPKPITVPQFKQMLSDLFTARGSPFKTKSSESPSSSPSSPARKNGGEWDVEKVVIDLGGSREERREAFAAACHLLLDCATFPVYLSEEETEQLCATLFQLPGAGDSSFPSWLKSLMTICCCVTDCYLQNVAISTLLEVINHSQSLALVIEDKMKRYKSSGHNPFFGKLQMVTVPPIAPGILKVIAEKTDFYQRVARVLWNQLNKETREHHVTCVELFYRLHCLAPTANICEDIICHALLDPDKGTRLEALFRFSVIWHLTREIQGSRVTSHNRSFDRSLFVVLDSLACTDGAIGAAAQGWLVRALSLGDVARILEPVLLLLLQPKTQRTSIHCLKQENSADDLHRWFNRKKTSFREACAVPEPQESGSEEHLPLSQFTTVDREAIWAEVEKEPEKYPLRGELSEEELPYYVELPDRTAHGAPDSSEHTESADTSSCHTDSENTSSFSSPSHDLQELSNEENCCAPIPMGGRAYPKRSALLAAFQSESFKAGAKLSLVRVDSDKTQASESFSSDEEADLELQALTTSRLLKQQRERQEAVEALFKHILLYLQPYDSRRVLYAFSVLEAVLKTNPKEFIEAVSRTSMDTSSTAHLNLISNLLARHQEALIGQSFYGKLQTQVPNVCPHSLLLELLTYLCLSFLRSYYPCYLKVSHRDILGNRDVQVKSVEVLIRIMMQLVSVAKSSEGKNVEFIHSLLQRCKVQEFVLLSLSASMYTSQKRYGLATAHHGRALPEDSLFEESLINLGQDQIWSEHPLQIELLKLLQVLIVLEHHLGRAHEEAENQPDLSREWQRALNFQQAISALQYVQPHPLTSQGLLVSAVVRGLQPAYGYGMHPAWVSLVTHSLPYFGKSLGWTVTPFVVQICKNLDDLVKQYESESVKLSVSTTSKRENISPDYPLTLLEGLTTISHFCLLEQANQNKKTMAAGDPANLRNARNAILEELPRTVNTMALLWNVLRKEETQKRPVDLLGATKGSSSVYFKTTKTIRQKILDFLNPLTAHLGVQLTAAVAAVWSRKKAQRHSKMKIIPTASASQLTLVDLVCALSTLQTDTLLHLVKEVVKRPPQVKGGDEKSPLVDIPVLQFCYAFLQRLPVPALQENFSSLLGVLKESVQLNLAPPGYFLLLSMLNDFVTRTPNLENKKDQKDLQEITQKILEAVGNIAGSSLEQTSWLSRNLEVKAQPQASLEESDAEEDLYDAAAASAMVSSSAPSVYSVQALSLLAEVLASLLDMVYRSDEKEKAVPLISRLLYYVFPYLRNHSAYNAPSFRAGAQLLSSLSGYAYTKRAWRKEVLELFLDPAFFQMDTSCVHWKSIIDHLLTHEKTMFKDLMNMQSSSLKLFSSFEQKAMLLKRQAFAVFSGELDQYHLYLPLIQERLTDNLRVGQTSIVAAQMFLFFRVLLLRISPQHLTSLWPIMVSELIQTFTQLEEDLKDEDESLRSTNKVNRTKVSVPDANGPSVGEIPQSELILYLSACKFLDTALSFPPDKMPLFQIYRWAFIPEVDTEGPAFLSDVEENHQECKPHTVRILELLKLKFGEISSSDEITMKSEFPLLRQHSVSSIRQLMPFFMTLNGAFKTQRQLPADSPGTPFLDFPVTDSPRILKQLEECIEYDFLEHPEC
UniProt Q9NYP3: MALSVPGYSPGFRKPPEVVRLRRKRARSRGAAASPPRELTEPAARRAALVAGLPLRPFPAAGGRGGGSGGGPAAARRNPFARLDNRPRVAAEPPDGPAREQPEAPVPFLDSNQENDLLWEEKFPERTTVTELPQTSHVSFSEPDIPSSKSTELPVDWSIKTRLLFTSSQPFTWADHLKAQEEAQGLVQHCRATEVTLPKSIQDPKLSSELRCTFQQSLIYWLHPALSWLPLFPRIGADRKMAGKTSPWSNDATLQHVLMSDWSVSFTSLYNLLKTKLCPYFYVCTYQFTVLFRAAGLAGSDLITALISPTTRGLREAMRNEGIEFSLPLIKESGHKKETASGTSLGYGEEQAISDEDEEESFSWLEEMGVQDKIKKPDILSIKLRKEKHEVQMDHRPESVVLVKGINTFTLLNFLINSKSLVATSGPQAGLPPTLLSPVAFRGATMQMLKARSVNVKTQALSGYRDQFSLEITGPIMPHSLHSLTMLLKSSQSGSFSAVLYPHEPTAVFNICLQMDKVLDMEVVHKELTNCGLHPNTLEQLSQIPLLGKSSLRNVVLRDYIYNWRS
UniProt Q6P1R4: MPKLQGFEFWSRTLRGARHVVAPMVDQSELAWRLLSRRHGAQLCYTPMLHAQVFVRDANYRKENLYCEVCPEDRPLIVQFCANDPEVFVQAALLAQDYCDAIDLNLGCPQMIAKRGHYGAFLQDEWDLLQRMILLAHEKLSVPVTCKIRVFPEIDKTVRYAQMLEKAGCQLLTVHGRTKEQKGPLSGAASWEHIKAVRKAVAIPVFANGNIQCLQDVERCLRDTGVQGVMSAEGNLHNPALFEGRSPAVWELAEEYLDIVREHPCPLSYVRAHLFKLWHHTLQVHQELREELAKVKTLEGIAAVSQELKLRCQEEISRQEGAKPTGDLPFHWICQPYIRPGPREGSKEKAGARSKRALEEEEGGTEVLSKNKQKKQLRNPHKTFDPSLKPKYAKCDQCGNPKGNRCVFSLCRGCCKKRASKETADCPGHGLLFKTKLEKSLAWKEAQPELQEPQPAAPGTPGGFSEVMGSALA
UniProt Q4LDG9: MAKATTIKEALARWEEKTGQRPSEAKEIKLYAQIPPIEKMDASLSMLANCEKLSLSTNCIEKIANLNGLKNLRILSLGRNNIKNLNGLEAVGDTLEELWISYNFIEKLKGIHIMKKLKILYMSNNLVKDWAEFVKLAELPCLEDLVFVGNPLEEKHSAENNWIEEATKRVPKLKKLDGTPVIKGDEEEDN
UniProt Q96DC8: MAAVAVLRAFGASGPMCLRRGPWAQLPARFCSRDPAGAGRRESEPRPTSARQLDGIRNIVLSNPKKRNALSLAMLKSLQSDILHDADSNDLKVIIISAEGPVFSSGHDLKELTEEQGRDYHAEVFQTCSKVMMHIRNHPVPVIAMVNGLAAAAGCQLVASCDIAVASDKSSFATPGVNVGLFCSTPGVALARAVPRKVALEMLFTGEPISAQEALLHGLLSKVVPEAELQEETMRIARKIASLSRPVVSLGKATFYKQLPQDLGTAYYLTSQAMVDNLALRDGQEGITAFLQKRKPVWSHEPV
UniProt Q6P3W2: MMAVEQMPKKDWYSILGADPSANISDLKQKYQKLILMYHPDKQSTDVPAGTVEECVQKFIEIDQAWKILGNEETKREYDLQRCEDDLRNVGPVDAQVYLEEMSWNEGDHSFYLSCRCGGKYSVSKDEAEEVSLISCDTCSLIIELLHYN
UniProt O95905: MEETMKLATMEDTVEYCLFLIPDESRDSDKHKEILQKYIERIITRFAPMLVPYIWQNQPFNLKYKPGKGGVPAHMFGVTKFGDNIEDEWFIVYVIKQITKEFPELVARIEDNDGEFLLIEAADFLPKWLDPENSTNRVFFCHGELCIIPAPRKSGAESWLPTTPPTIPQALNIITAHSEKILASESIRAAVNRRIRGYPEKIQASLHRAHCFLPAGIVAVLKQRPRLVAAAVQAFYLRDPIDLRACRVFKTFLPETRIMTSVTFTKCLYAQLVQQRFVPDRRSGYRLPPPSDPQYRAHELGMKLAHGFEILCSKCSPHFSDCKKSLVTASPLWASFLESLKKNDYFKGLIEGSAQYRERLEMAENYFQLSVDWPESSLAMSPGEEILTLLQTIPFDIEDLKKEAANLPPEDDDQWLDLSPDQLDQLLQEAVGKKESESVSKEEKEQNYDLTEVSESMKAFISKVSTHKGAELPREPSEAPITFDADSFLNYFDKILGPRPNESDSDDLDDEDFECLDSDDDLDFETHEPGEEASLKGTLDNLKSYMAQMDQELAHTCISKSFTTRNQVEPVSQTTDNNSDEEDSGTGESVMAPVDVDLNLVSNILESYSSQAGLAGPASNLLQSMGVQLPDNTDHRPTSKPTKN
UniProt Q16610: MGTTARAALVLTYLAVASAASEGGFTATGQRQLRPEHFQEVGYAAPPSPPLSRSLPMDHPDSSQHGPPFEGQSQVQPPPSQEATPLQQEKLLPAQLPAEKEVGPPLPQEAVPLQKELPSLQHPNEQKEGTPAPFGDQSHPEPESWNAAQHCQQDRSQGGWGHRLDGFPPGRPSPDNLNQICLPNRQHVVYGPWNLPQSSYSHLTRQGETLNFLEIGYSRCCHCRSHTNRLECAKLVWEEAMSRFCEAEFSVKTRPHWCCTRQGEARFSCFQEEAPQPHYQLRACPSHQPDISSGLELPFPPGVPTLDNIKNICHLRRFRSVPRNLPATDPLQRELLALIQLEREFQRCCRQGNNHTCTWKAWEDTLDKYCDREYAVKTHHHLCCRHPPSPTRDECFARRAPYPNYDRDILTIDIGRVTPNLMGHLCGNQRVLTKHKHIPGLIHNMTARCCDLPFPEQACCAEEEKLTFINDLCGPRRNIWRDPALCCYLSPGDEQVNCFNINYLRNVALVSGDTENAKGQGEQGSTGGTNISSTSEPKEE
UniProt Q9NRR4: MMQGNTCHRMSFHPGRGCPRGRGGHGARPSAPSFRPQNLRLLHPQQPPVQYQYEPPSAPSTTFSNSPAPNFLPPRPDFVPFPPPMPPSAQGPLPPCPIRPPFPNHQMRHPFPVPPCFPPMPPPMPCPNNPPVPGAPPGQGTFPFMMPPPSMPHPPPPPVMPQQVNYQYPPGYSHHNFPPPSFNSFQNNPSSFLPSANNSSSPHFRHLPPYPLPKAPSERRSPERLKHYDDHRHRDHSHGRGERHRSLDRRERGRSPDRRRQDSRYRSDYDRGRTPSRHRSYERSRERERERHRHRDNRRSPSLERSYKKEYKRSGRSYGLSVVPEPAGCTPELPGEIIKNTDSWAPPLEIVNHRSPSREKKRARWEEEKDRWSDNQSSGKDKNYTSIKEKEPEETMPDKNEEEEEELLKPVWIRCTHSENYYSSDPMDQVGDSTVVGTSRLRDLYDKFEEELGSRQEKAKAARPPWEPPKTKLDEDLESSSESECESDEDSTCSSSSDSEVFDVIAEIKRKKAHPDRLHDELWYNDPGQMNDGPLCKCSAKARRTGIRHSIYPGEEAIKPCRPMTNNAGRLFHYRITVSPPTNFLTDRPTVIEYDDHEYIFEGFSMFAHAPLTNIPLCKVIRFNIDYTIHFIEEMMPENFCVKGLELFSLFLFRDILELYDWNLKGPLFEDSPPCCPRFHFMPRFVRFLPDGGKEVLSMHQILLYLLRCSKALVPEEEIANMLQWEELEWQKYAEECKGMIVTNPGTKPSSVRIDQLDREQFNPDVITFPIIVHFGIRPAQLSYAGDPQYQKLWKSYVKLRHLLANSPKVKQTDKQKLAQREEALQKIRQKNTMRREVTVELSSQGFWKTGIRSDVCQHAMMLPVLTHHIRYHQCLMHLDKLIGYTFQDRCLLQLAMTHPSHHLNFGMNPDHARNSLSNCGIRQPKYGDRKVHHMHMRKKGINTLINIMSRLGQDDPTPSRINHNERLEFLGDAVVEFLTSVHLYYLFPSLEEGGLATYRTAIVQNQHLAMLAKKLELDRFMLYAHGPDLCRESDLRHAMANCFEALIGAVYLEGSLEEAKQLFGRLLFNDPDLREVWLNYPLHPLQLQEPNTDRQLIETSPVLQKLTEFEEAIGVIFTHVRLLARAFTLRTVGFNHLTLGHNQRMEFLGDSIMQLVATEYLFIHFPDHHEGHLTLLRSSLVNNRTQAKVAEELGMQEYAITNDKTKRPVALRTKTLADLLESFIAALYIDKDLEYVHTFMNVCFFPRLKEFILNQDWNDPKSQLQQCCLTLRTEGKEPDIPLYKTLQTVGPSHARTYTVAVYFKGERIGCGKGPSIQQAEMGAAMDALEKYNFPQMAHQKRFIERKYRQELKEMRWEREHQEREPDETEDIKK

log2 fold change, inactive:
DOP1B (UniProt Q9Y3R5) -0.1
DNAJC4 (UniProt Q9NNZ3) -0.028
E4F1 (UniProt H3BN24) 0.084
DOCK10 (UniProt Q96BY6) -0.07
DNAJB2 (UniProt P25686) -0.126
DYM (UniProt Q7RTS9) 0.213
DONSON (UniProt Q9NYP3) 0.118
DYNC1I1 (UniProt O14576) 0.141
E4F1 (UniProt Q66K89) 0.097
ECT2 isoform 3 (UniProt Q9H8V3) 0.067
DUS1L (UniProt Q6P1R4) 0.077
DNAL1 (UniProt Q4LDG9) -0.113
ECHDC3 (UniProt Q96DC8) 0.022
DNAJC24 (UniProt Q6P3W2) -0.084
DYNC2LI1 isoform 2 (UniProt Q8TCX1) -0.054
DOCK2 (UniProt Q92608) 0.19
DUSP9 (UniProt Q99956) -0.045
ECD isoform 3 (UniProt O95905) 0.025

Compound: C1=CC=C2C(=C1)C3=NNC4=CC=CC(=C43)C2=O
Test: as above
Summary of the method: as §1

log2 fold change, inactive:
DPY19L2 (UniProt Q6NUT2) 0.174
DVL2 (UniProt O14641) -0.182
DYNLT3 (UniProt P51808) -0.103
ECM1 isoform 2 (UniProt Q16610) -0.283
DRAM2 (UniProt Q6UX65) 0.047
DONSON (UniProt Q9NYP3) -0.088
E4F1 (UniProt Q66K89) -0.002
DPCD (UniProt Q9BVM2) 0.049
DNAL1 (UniProt Q4LDG9) 0.091
DROSHA (UniProt Q9NRR4) -0.255

Compound: C1CCN(C1)C(=O)NC2=CC=CC(=C2)NC3=NC=C(C(=N3)NCCC4=CN=CN4)Br
Test: as above
Summary of the method: as §1

log2 fold change, inactive:
DOP1B (UniProt Q9Y3R5) 0.154
DPY19L2 (UniProt Q6NUT2) -0.019
DOCK10 (UniProt Q96BY6) 0.132
DNPEP (UniProt C9JBE1) -0.005
DYM (UniProt Q7RTS9) -0.1
ECM1 isoform 2 (UniProt Q16610) 0.007
DRAM2 (UniProt Q6UX65) 0.015
DNAJB1 (UniProt M0R128) 0.142
DONSON (UniProt Q9NYP3) 0.05
E4F1 (UniProt Q66K89) 0.027
DUS1L (UniProt Q6P1R4) -0.126
DSTYK (UniProt Q6XUX3) -0.02
ECHDC3 (UniProt Q96DC8) 0.119
DNAJC24 (UniProt Q6P3W2) -0.047
DNAJC25 (UniProt Q9H1X3) -0.077
DROSHA (UniProt Q9NRR4) 0.107
ECD isoform 3 (UniProt O95905) 0.031

Compound: C1CN(CCC1(CC2=CC=C(C=C2)Cl)N)C3=NC=NC4=C3C=CN4
Test: as above
Summary of the method: as §1

log2 fold change, inactive:
DOP1B (UniProt Q9Y3R5) -0.112
DPY19L2 (UniProt Q6NUT2) -0.017
DOCK10 (UniProt Q96BY6) 0.163
DNPEP (UniProt C9JBE1) -0.14
DYM (UniProt Q7RTS9) -0.01
ECM1 isoform 2 (UniProt Q16610) -0.301
DRAM2 (UniProt Q6UX65) 0.048
DNAJB1 (UniProt M0R128) 0.133
DONSON (UniProt Q9NYP3) 0.004
E4F1 (UniProt Q66K89) -0.021
DUS1L (UniProt Q6P1R4) -0.094
DSTYK (UniProt Q6XUX3) 0.001
ECHDC3 (UniProt Q96DC8) -0.04
DNAJC24 (UniProt Q6P3W2) -0.158
DNAJC25 (UniProt Q9H1X3) 0.044
DROSHA (UniProt Q9NRR4) -0.383
ECD isoform 3 (UniProt O95905) -0.049
